Test results from publication PMC9106453.
These are yes or no findings as the source states them, for the method shown. Binding seen in cells or lysates may run through a third protein. Some binding calls cover weakened binding; strength is not graded here.

Protein sequences, listed by entry. Tags and fused reporters are not part of them. Residues count along the entry.
UniProt Q92743, residues 23-480: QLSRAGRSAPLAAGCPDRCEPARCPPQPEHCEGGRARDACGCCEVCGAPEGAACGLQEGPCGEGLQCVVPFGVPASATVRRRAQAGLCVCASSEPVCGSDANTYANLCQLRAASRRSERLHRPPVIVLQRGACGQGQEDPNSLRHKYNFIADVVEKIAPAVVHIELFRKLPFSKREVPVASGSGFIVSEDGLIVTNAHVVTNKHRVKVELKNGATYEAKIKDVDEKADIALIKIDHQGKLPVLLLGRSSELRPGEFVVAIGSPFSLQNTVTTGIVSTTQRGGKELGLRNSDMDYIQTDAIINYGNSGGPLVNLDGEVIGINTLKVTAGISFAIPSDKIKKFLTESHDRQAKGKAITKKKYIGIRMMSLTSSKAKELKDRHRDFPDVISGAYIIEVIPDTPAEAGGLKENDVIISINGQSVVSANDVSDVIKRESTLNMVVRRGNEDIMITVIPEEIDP
UniProt P05019, residues 49-118: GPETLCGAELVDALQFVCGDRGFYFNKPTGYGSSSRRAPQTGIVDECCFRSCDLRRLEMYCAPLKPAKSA

Key:
[1] = target: Htra1-HA (UniProt Q92743); test: co-IP; as a1, with AG1024 (IGF-1R antagonist) added; concentration for this experiment not stated; only the binder purified
[2] = target: Htra1-HA (UniProt Q92743); test: co-IP; HEK 293T-derived wild-type or Htra1 material incubated with human IGF-1 at 4°C for 2 hours; HtrA1 immunoprecipitated overnight; IGF-1 detected on the blot with an IGF-1 antibody; only the binder purified

human IGF-1 (from UniProt P05019 49-118) (ligand)
binding [1]: no binding (condition: with AG1024) | binding [2]: binds
